The target in assay [1] is GTP-bound Cdc42, endogenous (human (endogenous in A431)) (UniProt P60953). The assay is described as follows: pull-down; glutathione beads with GST-PAK-1 PBD used to pull down GTP-bound Rac1/Cdc42 from lysates of A431-V and -D3 cells; pull-downs re-blotted with Dsg3 antibodies.
Assay [2] addresses GTP-bound RhoA, endogenous (human (endogenous in A431)) (UniProt P61586). The assay is described as follows: pull-down; glutathione beads with GST-Rhotekin-PBD used to pull down GTP-bound RhoA from lysates of A431-V and -D3 cells; pull-downs re-blotted with Dsg3 antibodies.

Protein sequences, listed by entry. Tags and fused reporters are not part of them.
UniProt P60953: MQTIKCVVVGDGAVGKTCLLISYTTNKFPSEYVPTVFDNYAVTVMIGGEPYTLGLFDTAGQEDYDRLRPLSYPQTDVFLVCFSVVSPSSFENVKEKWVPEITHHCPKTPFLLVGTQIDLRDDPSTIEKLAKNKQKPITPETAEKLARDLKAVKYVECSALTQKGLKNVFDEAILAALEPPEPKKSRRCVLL
UniProt P61586: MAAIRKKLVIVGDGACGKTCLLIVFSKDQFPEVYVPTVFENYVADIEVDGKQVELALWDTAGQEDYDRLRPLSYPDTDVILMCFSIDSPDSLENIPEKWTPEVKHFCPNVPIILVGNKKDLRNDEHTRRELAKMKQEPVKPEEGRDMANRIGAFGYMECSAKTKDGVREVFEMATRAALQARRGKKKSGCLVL

No constants are given. Whether binding was seen depends on the method and setting. In cells and extracts the contact can be indirect. Some entries that bind do so weakly or less than the wild type.

B1: human Dsg3 overexpressed in A431 cells (A431-D3) (protein, UniProt P32926 50-999)
chain: EWVKFAKPCREGEDNSKRNPIAKITSDYQATQKITYRISGVGIDQPPFGIFVVDKNTGDINITAIVDREETPSFLITCRALNAQGLDVEKPLILTVKILDINDNPPVFSQQIFMGEIEENSASNSLVMILNATDADEPNHLNSKIAFKIVSQEPAGTPMFLLSRNTGEVRTLTNSLDREQASSYRLVVSGADKDGEGLSTQCECNIKVKDVNDNFPMFRDSQYSARIEENILSSELLRFQVTDLDEEYTDNWLAVYFFTSGNEGNWFEIQTDPRTNEGILKVVKALDYEQLQSVKLSIAVKNKAEFHQSVISRYRVQSTPVTIQVINVREGIAFRPASKTFTVQKGISSKKLVDYILGTYQAIDEDTNKAASNVKYVMGRNDGGYLMIDSKTAEIKFVKNMNRDSTFIVNKTITAEVLAIDEYTGKTSTGTVYVRVPDFNDNCPTAVLEKDAVCSSSPSVVVSARTLNNRYTGPYTFALEDQPVKLPAVWSITTLNATSALLRAQEQIPPGVYHISLVLTDSQNNRCEMPRSLTLEVCQCDNRGICGTSYPTTSPGTRYGRPHSGRLGPAAIGLLLLGLLLLLLAPLLLLTCDCGAGSTGGVTGGFIPVPDGSEGTIHQWGIEGAHPEDKEITNICVPPVTANGADFMESSEVCTNTYARGTAVEGTSGMEMTTKLGAATESGGAAGFATGTVSGAASGFGAATGVGICSSGQSGTMRTRHSTGGTNKDYADGAISMNFLDSYFSQKAFACAEEDDGQEANDCLLIYDNEGADATGSPVGSVGCCSFIADDLDDSFLDSLGPKFKKLAEISLGVDGEGKEVQPPSKDSGYGIESCGHPIEVQQTGFVKCQTLSGSQGASALSTSGSVQPAVSIPDPLQHGNYLVTETYSASGSLVQPSTAGFDPLLTQNVIVTERVICPISSVPGNLAGPTQLRGSHTMLCTEDPCSRLI
On to B1, for which the binding entry in assay [1] and in assay [2] was “binds” throughout.
